Values after ≈ are worked out from the molar mass of the structure shown.

This passage reports IC50 results from patent publication US11135309B2, “Poly(vinyl alcohol) nanocarriers” (THE REGENTS OF THE UNIVERSITY OF CALIFORNIA, priority 2015, dated 2021).

The test has as its system MDA-MB-231 cells. The experiment in a line: MTT cytotoxicity assay, 72 hr. In kind it is cell-based. To be noted: MTT viability assay. As to the method: In vitro cytotoxicity study. The cytotoxicity of blank Cr-PVA-LA NPs was evaluated on MDA-MB-231 and MCF-7 cells. The in vitro anti-tumor effects of DOX loaded Cr-PVA-LA NPs were evaluated on MDA-MB-231 cell in comparison with the commercial DOX. MDA-MB-231 and MCF-7 cells were seeded in 96-well plates a day prior to the treatment at a density of 3000 cell/well. After 72 hr incubation with different concentrations of blank Cr-PVA-LA or DOX loaded Cr-PVA-LA NPs in a humidified 37° C., MTT was added to each well and further incubated for 2 hr. The absorbance at 486 nm was detected using a microplate ELISA reader(SpectraMax M2, Molecular Devices, USA). Values were reported as the means for each triplicate samples.

For the molecule `COc1cccc2c1C(=O)c1c(O)c3c(c(O)c1C2=O)C[C@@](O)(C(=O)CO)C[C@@H]3O[C@H]1C[C@H](N)[C@H](O)[C@H](C)O1` [DOX, doxorubicin], the IC50 came out at 0.3456 µg/mL (≈ 0.636 µM).
